Assay results published in patent publication US20250360138A1 (priority 2022, published 2025).

Tested on: HEK293T
Assay: Mammalian cytotoxicity counter screen, luminescent ATP viability assay
Type: cell-based, human
Conditions: toxicity in mammalian cell cultures versus G. lamblia GS-clone 7 trophozoites

Compound | Selectivity index (SI), CC50/EC50
CS(=O)(=O)OCCN(CCBr)c1c(C(=O)NCCOP(=O)(O)O)cc([N+](=O)[O-])cc1[N+](=O)[O-] [PR-104] | > 13
CC(=O)C[C@H]1CCCCN1 [pelletierine] | > 1
